Experimental data from the RNAGym collection of RNA variant scans (doi:10.1126/science.aae0568).
Variants at the background level are over-represented here.

B1: tRNA (parent)
chain: GUUCCGUUGGCGUAAUGGUAACGCGUCUCCCUCCUAAGGAGAAGACUGCGGGUUCGAGUCCCGUACGGAACG

Variants of: B1
Assay: yeast fitness relative to wild type (ratio to wild type); higher = fitter; tRNA-Arg(CCU), competitive growth, 37 C, YPD
In short: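 Gene amplicons from the start population and from each of six end populations were read by 100-nucleotide paired-end sequencing. Those end populations came from pooled Saccharomyces cerevisiae strains carrying tRNA-Arg(CCU) gene variants at the native locus, competed in YPD at 37°C for 24 hours. Fitness relative to wild type was worked out from changes in genotype frequencies. Genotypes needed ≥ 100 starting reads, and estimates < 0.5 were set to 0.5.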

| Variant | yeast fitness |
| --- | --- |
| GUUCUGUUGGCAUAAUCGUAACGCGGCUCCCUCCUAAGGAGAAGACUGCGGGUUCGAGUCCCGUACAGAACG | ≤ 0.5 |
| GUUCUGUUGGCCUAAUGGUAACGCGUCUCCCACCAAAGGAGAAGACUGCGGGUCCGAGUCCCGUACGGAACG | ≤ 0.5 |
| GUUCUGUUGGCGUAAUCGUAUCGCGUCUCCCUCCUAAGGGGAAGACGCCGGGUUCGAGUCCCGUACGGAACG | ≤ 0.5 |
| GUUCUGUUGGCGUAAUCGUAACGCCUCUCCCUCCUAAGGAGAAGACCGCGGGUUCGAGUCCCGUACGGAACG | ≤ 0.5 |
| GUUCUGUUGGCGUAAUGAUAACGCGUCUGCCUCCUACGGAGAAGACUGCGGGUUCGAGUCCCGUACGGAACG | ≤ 0.5 |
| GUUCUGUUGGCGUAAUGAUAACCGGUCUCCCUCCUAAGGAGAAGAGUGCGGGUUCGAGUCCCGUACGGAACG | ≤ 0.5 |
| GUUCUGUUGGCGUAAUGCUAAAGCGUCUCCCUCCUAAGGAGAAGACUGCGCGUUCGAGUCCCGUACGGAACG | 0.562 |
| GUUCUGUUGGCGUAAUGGUAACACGUCUCCUUCCUAAGGAGAAGACUGCGGGUUCGAGUCCCGUACGGAACG | ≤ 0.5 |
| GUUCUGUUGGCGUAAUGGUAACACCUCUCCCUCCUAAGGAGAAGACUGCGGGUUCGAGUCCCGUACGGAACG | 0.65 |
| GUUCUGUUGGCGUAAUGGUAACGCGUCUCCCUCCUAAGAAAAAGUUUGCGGGUUCGAGUCCCGUACGGAACG | ≤ 0.5 |
| GUUCUGUUGGCGUAAUGGUAACGCGUCUCCCUCCUAAGGAGAAGACUACGGGUUUGAGUCCCGUACGGAACG | 0.558 |
| GUUCUGUUGGCGUAAUGGUAACGCGUCUCCCUCCUAAGGAGAAGACUACGGGUUCGAGUCGCGUACGGCACG | ≤ 0.5 |
| GUUCUGUUGGCGUAAUGGUAACGCGUCUCCCUCCUAAGGAGAAGACUGCGGGUUCAAGUCCGGUACGGAACG | ≤ 0.5 |
| GUUCUGUUGGCGUAAUGGUAACGCGUCUCCCUCCUAAGGAGAAGACUGCGGGUUCGAGUCCCAUAGGGAACG | ≤ 0.5 |
| GUUCUGUUGGCGCAAUGGUAACGGGCCUCCCUCCUAGGGAGAAGACUACGGGUUCGAGUCCCGUACGGAACG | ≤ 0.5 |
| GUUCUGUUGGCGCAAUGGUAACGGGCCUCCCUCCUAGGGAGAAGACUGCGGGUGCGAGUCCCGUACGGUACG | ≤ 0.5 |
| GUUCUGUUGGCGUAAAGGUUACGGGUCUCCCUGCUAAGGAGAAGACUGCGGGUUCGAGUCACGUACCGAACG | ≤ 0.5 |
| GUUCUGUUGGCGUAAUGGCAACGCGUCUCCCUCCUAAGGAGAAGACUGCGGGUUCGAGUCCCCUAUGGAACG | ≤ 0.5 |
| GUUCUGUUGGCGUAAUGGUAACGCGACUCCCUCCUAAGGAGAAGACUGCGGGUUCGGGUCUCGUACGGAACG | ≤ 0.5 |
| GUUCUGUUGGCGUAAUGGUAACGCGACUCCCUCCUAAGGAGAAGACUACGGGUUCGAGUCCCGUACGGAUCG | ≤ 0.5 |
| GUUCUGUUGGCGUAAUGGUAACGCGGCUCCCUCCUAAGGAGAAGACUGCGGGUUCGAGUCCCGUACGGAACG | 0.969 |
| GUUCUGUUGGCGUAAUGGUAACGCGUCUCCCUCCAAAGGAGAAGACUGCGGGUUCAAGUCCCGUGAGCAACG | ≤ 0.5 |
| GUUCUGUUGGCGUAAUGGUAACGCGUCUCCCUCCUAAGGAGAAGACAGCGGGUUCGAGUCCCGUACGCAACG | 0.534 |
| GUUCUGUUGGCGUAAUGGUAACGCGUCUCCCUCCUAAGGAGAAGACUGCGGGCUCGGGUCCCGUAUGGAACG | ≤ 0.5 |
| GUUCCAUUGGCGUCAUGGUAACGCGUCUCCCUCCUAAGGAGACGACUGCGGGUUCGAGUGCCGUACGGAACG | ≤ 0.5 |

| Variant | yeast fitness |
| --- | --- |
| GUUCCAUUGGCGUGAUGGUAACGUGUCUCCCUCCUAAGGAGAAGACUGCGGGUUCGAGUCCCGUCCGGAACG | ≤ 0.5 |
| GUUCCAUUGGCGUGAUGGUAACGCGUCUCCCUCCUAAGGAGAAGACUGUGGGUUCGAGUCCCGUACGGAACG | 0.57 |
| GUUCCAUUGGCGUACUGGUUACGCGUCUCCCUCCUAAGGAGAAGACUGCGGGUUCGAGUCCCGUACGGAACG | 0.56 |
| GUUCCAUUGGCGUACUGGUUACGCGUCUCCCUCCUAAGGAGAAGACUGCGGGUUCGUGUCCCGUACGGAACG | ≤ 0.5 |
| GUUCCAUUGGCGUAGUGGUAACGCGUCUCCCUCCUAAGGAGGAGACUGCGGGUUCGAGUGCCGUACGGAUCG | ≤ 0.5 |
| GUUCCAUUGGCGUAAUGGUCUCGCGUCUCCCUCCUAAGGAGAAGAGUGCGGGUUCGAGUCCCGUACGGAACG | ≤ 0.5 |
| GUUCCAUUGGCGUAAUGGUCACGCGUCUCCCUCCUAAGGAGAAGACUGCGGGUUCGAGACCCGUACGGUACG | ≤ 0.5 |
| GUUCCAUUGGCGUAAUGGUAGCGCGUCUCCCUCCUAAGGAGAAGAAUGCGGGUUUAAGUCCCGUACGGAACG | ≤ 0.5 |
| GUUCCAUUGGCGUAAUGGUAACGCGUCUCCCUCCUGAGGAGACGACUGCGGGUUCGAGUCCCGUACGGAACG | ≤ 0.5 |
| GUUCCAUUGGCGUAAUGGUAACGCGUCUCCCUCCUUAGGAGAAGACUGGGGGUUCCAGUCCCGUACGGAACG | ≤ 0.5 |
| GUUCCAUUGGCGUAAUGGUAACGCGUCUCCCUCCUAAGGAGAAGACUGCGGGUUCGUGUCCCGUACGGAACG | 0.629 |
| GUUCCAUUGGCGUAAUGGUAAUGCGUCUCCCUCCUAAGGAGAUGACUCCGGGUUCGAGUCCCGUACGGAACG | ≤ 0.5 |
| GUUCCAUUGGCGUAAUGGUAACGAGUCUCCCUCCUAAACAGAAGACUGCGGGUUCGAGUCCCGUACGGAACG | ≤ 0.5 |
| GUUCCAUUGGCGUAAUGGUAACGCGUCUUCCUCCUACGGAGAAGACUGCGGGUUCGAGUCCCGUACGGAACG | ≤ 0.5 |
| GUUCCAUUGGCGUAAUGGUAACGCGUCUCCCUUCUAAGGAGAAGACUGCGGGUUCGAGUCCCGUACGGAGCG | ≤ 0.5 |
| GUUCCAUUAGCGUAAUGGUAACGCGUCUCCCUCCUAAGGAGAAGACUGCGGGUUCGCGUCCCGUCCGGACCG | ≤ 0.5 |
| GUUCCAUUGACGUAAUGGUAGCGCGUCCCCCUCCUAAGGAGAAGACUGCGGGUUCGAGUCCCGUACGGAACG | ≤ 0.5 |
| GUUCCAUUGGCGUAAUCGCAACGCGUCUACCUCCUAAGGAGAACACUACGGGUUCGAGUCCCGUACGGAACG | ≤ 0.5 |
| GUUCCAUUGGCGUAAUGCUAACGCGUCUCGCUCAUACGGAGAAGACUGCGGGUUCGAGUCCCGUCCGGAACG | ≤ 0.5 |
| GUUCCAGUGGCGUAAUGGUAACGCCUCUCCCUCCUAAGGAGAAGUCUGCGGGUUCAAGUCCCGUACGGAACG | ≤ 0.5 |
| GUUCCAUCGGCGUCAUGGUAACGCGUCUCCCUCCUAAGGAGAAGACUGCGGGUUCGAGUCCCGUACGCAACG | ≤ 0.5 |
| GUUCCAUCGGCGUUAUGGUAACGCGUCUCCCUCCUAAGGAGAAGACUGCGGGUUCGAGUCCCGUACGGAACG | 0.564 |
| GUUCCAUGGGCGUAAUGGUAACGCGUCUCCCUCCUAAGGAGAAGACUGCGGGUUCGAGUCCCGUACGCAACG | ≤ 0.5 |
| GUUCCAUUGGCGAAAUGGUGGCGCGUCUCCCUCCUAAGGAGAAGACUGCGGGUUCGAGUCCCGUCCGGAACG | ≤ 0.5 |
| GUUCCAUUGGCGUAACGGUAACGCGUAUCCCUCCUAAGGAGAAGACUGCGGGUUCGAGUCCCGUACGGAACG | ≤ 0.5 |

| Variant | yeast fitness |
| --- | --- |
| GUUCCAUUGGCGUAAUGGUAACGCGGCUCUCUCCUAAGGAGAAGACUGCGGAUUCGAGUCCCGUACGGAACG | ≤ 0.5 |
| GUUCCAUUGGCGUAAUGGUAACGCGUCUCCCACCUAAGGAGAAGGCUGGGGGUUCGAGUCCCGUCCGGAACG | ≤ 0.5 |
| GUUCCAUUGGCGUAAUGGUAACGCGUCUCCCUCCUAAGGAGAAGACAGCGGGUUCGAGUCCCGUACGUAACG | ≤ 0.5 |
| GUUCCAUUGGCGUAAUGGUAACGCGUCUCCCUCCUAAGGAGAAGACUGCGGGCUCGCGUCCCGUUCGGAACG | ≤ 0.5 |
| GUUCCAUUGGCGUAAUGGUAACGCGUCUCCCUCCUAAGGAGAAGACUGCGGGUUCGAGCCACGUACGGAACG | ≤ 0.5 |
| GUUCCAUUGGCGUAAUGGUAACGCGUCUCCCUCCUAAGGAGAAGACUGCGGGUUCGAGCCCCGUAGGGAACG | ≤ 0.5 |
| GUUCCCUUGGCGUCAUGGUAACGCGUCUCCCUCCUAAGGAGGAGACUGCGGGUUCGAGUCCCGUACGGAACG | ≤ 0.5 |
| GUUCCCUUGGCGUCAUGGUAACGUGUCUACCUCCUAAGCAGAAGACUGCGGGUUCGAGUCCCGUACGGAACG | ≤ 0.5 |
| GUUCCCUUGGCGUAGUGGUAACGUGUCUCCCUCCUAAGGAGAAGACUGCGGGUUUGAGUACCGUACGGAACG | ≤ 0.5 |
| GUUCCCUUGGCGUAUUGGUAACGCGUCUCCCUCCUAAGGAGGAGACUGCGGGUUCGAGUCCCGUACGGAACG | ≤ 0.5 |
| GUUCCCUUGGCGUAAUGGUAGCGCGUCUCCCCCCUAAGGAGAAGACUGCGGGUUCGAGGCCCGUAUGGACCG | ≤ 0.5 |
| GUUCCCUUGGCGUAAUGGUAUCGCGUCUCCCUCCUCAGGAGAAGACUGCGGGUUCGGGUCCCGUACGGAACG | ≤ 0.5 |
| GUUCCCUUGGCGUAAUGGUAACGCGUCUCCCUCCUAGGGUGAAGCCUGCGGGUUCGAGUCCCGUACGGAACG | 0.702 |
| GUUCCCUUGGCGUAAUGGUAACGCGUCUCCCUCCUAGGGAGAAGACUGCGAGUUCGAGUCGCGUACGGAACG | ≤ 0.5 |
| GUUCCCUUGGCGUAAUGGUAACGCGUCUCCCUCCUAAGGAGGAGACUGCGGGUUCGAGUCCCUUACGGAACG | ≤ 0.5 |
| GUUCCCUUGGAGUAAUGGUAACGCGUCUCCCUCCUAAGGUGAAGACUGCGGCAUCGAGUCCCGUCCGGAACG | ≤ 0.5 |
| GUUCCCUUGGGGUAAUGGUAACGCGUCUCCCUCCUAUGGAGGAGACUGCGGGUUCGAGUCCCGUACGGAACG | ≤ 0.5 |
| GUUCCCUUGGUGUAAUGGUACCGCGUCUCCCUCCUAAGGAGAAGAGUGCGGGUUCGAGUCCCGUGCGGAACG | ≤ 0.5 |
| GUUCCCUUGGCGUAAUGGUAAAGCGUCUCCCUCCUAAGGAGAAGACUGCGGGUUCGUGUCCCGUACGGAACG | ≤ 0.5 |
| GUUCCCUUGGCGUAAUGGUAAAGCGUCUCCCUCCUAAGGAAAACACUGUGGGUUCGAGUCCCGUAUGGAACG | ≤ 0.5 |
| GUUCCCUUGGCGUAAUGGUAACGGGUCUGCCUCCUAAGCAGAAGACUGCGGGUUAGAGUCCCGUACGGAACG | ≤ 0.5 |
| GUUCCCUUGGCGUAAUGGUAACGGGUCUCCGUCCUAAGGAGAAGACUGCGGGUUCGAGUCCCGUACGGAACG | ≤ 0.5 |
| GUUCCCUUGGCGUAAUGGUAACGUGUCUCCCUCCUAAGGAGAAGACUGUGGGUUCCAGUCCCGUUCAGAACG | ≤ 0.5 |
| GUUCCCUUGGCGUAAUGGUAACGUGUCUCCCUCCUAAGGAGAAGACCGUGGGUUCCAGUCCCGUACGGAACG | ≤ 0.5 |
| GUUCCCUUGGCGUAAUGGUAACGCGUUUCCCUCCUAAGGAGAAGGCUGCGGGUUCGAGUCCCGAACGGCACG | ≤ 0.5 |
